Source: PubChem BioAssay AID264 (DTP/NCI, 2004)
The list does not hold the whole screen: it covers a few groups of compounds. Other doses and runs of a compound may be missing. T/C: endpoint of the treated group in % of that of the vehicle group. Schedules are NCI's codes, read here as Q, the interval in days (D) or hours (H), X, the number of doses. Some T/C values are marked as having no survivor count here; that says nothing about deaths at the dose.

Tested on: nude mice, LX-1 lung xenograft intrarenal, tumor weight T/C
Test: NCI In Vivo Anticancer Drug Screen. Data for tumor model Human Lung LX-1 Xenograft (intrarenal inoculation) in NU/NU Swiss (nude) mice
Settings: T/C endpoint: mean tumor weight change, evaluated on day 11, higher T/C = larger tumour
Method: The antitumor activity of compounds was measured in mice bearing transplantable tumors. Survival or tumor size were measured and the results are expressed as the measurement made in the treated group (T) divided by the measurement made in the vehicle treated control group (C). The tumor model used in this assay is Human Lung LX-1 Xenograft (intrarenal inoculation) in NU/NU Swiss (nude) mice

[1] = dose: 0.12 mg/kg/injection, schedule: Q01DX010 (sc), vehicle: Klucel (hydroxypropylcellulose) (HPC)
[2] = dose: 0.25 mg/kg/injection, schedule: Q01DX010 (sc), vehicle: Klucel (hydroxypropylcellulose) (HPC)
[3] = dose: 0.5 mg/kg/injection, schedule: Q01DX010 (sc), vehicle: Klucel (hydroxypropylcellulose) (HPC)
[4] = dose: 1.0 mg/kg/injection, schedule: Q01DX010 (sc), vehicle: Klucel (hydroxypropylcellulose) (HPC)

For CC(=O)OC[C@]12CC(=O)C(C)=C[C@H]1O[C@@H]1C(=O)[C@@H](OC(C)=O)[C@@]2(C)[C@@]12CO2, the T/C (dose: 2.0 mg/kg/injection, schedule: Q04DX003 (sc), vehicle: water) was 139 % of control [survivor count not shown], the T/C (dose: 4.0 mg/kg/injection, schedule: Q04DX003 (sc), vehicle: water) was 155 % of control [survivor count not shown] and the T/C (dose: 8.0 mg/kg/injection, schedule: Q04DX003 (sc), vehicle: water) was 172 % of control [survivor count not shown].
In the case of CC1=C[C@H]2O[C@@H]3[C@H](O)[C@@H](O)[C@](C)([C@@]2(CO)CC1)[C@@]31CO1, the T/C (dose: 2.0 mg/kg/injection, schedule: Q01DX010 (sc), vehicle: saline) is reported as 70 % of control [survivor count not shown].
In the case of CC1=CC2OC3CC4OC(=O)/C=C/C=C/C(C(C)O)OCC/C(C)=C/C(=O)OCC2(CC1)C4(C)C31CO1 (configuration not stated), the T/C (dose: 25.0 mg/kg/injection, schedule: Q04DX003 (sc), vehicle: saline with Tween-80) is reported as 118 % of control [survivor count not shown].
With CC(=O)OC[C@]12C[C@H](OC(=O)CC(C)C)C(C)=C[C@H]1O[C@@H]1[C@H](O)[C@@H](O)[C@@]2(C)[C@@]12CO2 the T/C (dose: 1.0 mg/kg/injection, schedule: Q04DX003 (sc), vehicle: saline) was 96 % of control [survivor count not shown], the T/C (dose: 2.0 mg/kg/injection, schedule: Q04DX003 (sc), vehicle: saline) was 113 % of control [survivor count not shown] and the T/C (dose: 4.0 mg/kg/injection, schedule: Q04DX003 (sc), vehicle: saline) was 153 % of control [survivor count not shown].
In the case of CC1=C[C@H]2O[C@@H]3C[C@H]4OC(=O)/C=C\C=C\C(C(C)O)OCC(O)C(C)CC(=O)OC[C@@]2(C[C@@H]1O)[C@]4(C)[C@@]31CO1 (some centres not stated), the T/C [1] is reported as 135 % of control [survivor count not shown], the T/C [2] is reported as 77 % of control [survivor count not shown] and the T/C [3] is reported as 71 % of control [survivor count not shown]. The T/C [4] was 53 % of control [survivor count not shown].
CC(=O)OCC12CCC(C)=CC1OC1C(O)C(OC(C)=O)C2(C)C12CO2 (configuration not stated) was tested, and the T/C (dose: 0.5 mg/kg/injection, schedule: Q01DX010 (sc), vehicle: saline) was 80 % of control [survivor count not shown].
For C=C(C)C(=O)OCC12CCC(C)=CC1OC1C(=O)C(OC(=O)C(=C)C)C2(C)C12CO2 (configuration not stated), the T/C (dose: 4.0 mg/kg/injection, schedule: Q04DX003 (sc), vehicle: saline with Tween-80) was 136 % of control [survivor count not shown].
With CC1=CC2OC3CC4OC(=O)/C=C/C=C/C(C(C)O)OCC(O)C(C)CC(=O)OCC2(CC1O)C4(C)C31CO1 (configuration not stated) the T/C [1] was 125 % of control [survivor count not shown], the T/C [2] was 75 % of control [survivor count not shown] and the T/C [3] was 106 % of control [survivor count not shown]. For the same molecule, the T/C [4] was 104 % of control [survivor count not shown].
With C[C@@H](O)[C@H]1/C=C/C=C\C(=O)O[C@@H]2C[C@H]3O[C@@H]4[C@@H]5OC5(C)CCC4(COC(=O)[C@H]4O[C@]4(C)[C@@H](O)CO1)[C@]2(C)[C@]31CO1 (some centres not stated) the T/C (dose: 2.5 mg/kg/injection, schedule: Q01DX010 (sc), vehicle: saline + alcohol) was 113 % of control [survivor count not shown], the T/C (dose: 5.0 mg/kg/injection, schedule: Q01DX010 (sc), vehicle: saline + alcohol) was 84 % of control [survivor count not shown] and the T/C (dose: 10.0 mg/kg/injection, schedule: Q01DX010 (sc), vehicle: saline + alcohol) was 48 % of control [survivor count not shown]. For the same molecule, the T/C (dose: 20.0 mg/kg/injection, schedule: Q01DX010 (sc), vehicle: saline + alcohol) was 65 % of control [survivor count not shown].
